From paper PMC8816931
Read-outs that look alike come from different tables or passages of the source. No constants are given. Whether binding was seen depends on the method and setting. In cells and extracts the contact can be indirect. Some results given as binding are weak or reduced against the parent protein; the word gives no strength.

Sequences of proteins named here, by UniProt entry; tags and fusion partners are left off. Residues count along the entry.
UniProt O35516, residues 26-2473: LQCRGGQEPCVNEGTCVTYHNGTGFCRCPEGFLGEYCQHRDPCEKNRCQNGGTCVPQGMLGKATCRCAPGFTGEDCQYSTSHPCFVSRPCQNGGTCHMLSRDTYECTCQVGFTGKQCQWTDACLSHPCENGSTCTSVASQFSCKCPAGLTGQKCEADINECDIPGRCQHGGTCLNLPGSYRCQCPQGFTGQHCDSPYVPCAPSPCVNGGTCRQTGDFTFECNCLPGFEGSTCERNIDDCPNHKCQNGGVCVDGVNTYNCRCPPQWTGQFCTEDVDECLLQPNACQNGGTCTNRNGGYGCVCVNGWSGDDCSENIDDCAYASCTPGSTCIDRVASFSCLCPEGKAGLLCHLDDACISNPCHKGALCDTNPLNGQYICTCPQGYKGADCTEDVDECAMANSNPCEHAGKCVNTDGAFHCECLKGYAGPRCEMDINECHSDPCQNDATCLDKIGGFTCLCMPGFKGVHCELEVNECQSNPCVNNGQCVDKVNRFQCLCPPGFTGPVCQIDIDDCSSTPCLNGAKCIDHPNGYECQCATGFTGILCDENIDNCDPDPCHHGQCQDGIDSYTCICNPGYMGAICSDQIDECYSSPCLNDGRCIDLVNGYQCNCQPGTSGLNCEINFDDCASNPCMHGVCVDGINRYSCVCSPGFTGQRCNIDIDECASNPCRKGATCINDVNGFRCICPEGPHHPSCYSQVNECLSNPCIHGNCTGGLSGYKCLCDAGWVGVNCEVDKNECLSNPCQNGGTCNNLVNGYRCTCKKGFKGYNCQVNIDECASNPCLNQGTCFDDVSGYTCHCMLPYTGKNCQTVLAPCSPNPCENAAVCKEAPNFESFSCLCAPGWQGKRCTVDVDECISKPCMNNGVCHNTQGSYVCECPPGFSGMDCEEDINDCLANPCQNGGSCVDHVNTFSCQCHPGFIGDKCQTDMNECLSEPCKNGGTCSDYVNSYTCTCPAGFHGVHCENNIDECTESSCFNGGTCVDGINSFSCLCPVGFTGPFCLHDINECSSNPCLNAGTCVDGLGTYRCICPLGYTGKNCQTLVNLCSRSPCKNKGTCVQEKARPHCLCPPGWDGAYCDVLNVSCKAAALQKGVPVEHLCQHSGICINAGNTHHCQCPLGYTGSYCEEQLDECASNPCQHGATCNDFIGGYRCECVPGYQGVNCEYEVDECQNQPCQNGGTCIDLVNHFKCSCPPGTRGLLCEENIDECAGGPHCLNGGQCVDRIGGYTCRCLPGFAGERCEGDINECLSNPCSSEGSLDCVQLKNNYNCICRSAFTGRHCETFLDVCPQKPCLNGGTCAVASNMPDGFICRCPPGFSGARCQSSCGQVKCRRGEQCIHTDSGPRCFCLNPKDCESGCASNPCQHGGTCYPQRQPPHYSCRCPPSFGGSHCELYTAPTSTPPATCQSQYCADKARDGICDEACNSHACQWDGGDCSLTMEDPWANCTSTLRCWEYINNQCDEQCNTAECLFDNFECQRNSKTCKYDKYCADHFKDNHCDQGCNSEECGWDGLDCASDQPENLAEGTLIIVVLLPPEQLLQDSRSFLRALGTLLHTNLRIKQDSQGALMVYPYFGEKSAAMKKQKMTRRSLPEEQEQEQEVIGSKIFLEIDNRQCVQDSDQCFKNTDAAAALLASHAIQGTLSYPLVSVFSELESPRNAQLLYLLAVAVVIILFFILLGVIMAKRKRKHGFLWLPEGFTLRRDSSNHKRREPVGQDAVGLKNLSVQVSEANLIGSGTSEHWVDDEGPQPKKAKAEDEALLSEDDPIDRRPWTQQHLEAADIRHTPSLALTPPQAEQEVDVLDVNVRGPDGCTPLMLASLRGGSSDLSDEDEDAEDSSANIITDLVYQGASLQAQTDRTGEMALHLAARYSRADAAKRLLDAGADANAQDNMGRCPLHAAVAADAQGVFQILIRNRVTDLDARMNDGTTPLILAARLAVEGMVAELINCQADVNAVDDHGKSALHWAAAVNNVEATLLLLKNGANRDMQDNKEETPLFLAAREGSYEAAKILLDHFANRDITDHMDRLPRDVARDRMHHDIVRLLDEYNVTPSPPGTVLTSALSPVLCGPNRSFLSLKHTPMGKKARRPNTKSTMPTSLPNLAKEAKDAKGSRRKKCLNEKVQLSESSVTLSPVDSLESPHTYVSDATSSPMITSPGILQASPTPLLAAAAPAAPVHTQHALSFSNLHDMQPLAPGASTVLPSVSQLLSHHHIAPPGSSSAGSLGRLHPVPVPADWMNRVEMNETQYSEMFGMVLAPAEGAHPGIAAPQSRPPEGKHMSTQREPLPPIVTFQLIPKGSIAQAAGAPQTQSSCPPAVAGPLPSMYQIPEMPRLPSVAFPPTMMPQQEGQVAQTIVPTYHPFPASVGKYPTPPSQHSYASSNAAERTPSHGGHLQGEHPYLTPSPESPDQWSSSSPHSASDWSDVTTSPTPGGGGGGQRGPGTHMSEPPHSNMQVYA
UniProt Q6QI06: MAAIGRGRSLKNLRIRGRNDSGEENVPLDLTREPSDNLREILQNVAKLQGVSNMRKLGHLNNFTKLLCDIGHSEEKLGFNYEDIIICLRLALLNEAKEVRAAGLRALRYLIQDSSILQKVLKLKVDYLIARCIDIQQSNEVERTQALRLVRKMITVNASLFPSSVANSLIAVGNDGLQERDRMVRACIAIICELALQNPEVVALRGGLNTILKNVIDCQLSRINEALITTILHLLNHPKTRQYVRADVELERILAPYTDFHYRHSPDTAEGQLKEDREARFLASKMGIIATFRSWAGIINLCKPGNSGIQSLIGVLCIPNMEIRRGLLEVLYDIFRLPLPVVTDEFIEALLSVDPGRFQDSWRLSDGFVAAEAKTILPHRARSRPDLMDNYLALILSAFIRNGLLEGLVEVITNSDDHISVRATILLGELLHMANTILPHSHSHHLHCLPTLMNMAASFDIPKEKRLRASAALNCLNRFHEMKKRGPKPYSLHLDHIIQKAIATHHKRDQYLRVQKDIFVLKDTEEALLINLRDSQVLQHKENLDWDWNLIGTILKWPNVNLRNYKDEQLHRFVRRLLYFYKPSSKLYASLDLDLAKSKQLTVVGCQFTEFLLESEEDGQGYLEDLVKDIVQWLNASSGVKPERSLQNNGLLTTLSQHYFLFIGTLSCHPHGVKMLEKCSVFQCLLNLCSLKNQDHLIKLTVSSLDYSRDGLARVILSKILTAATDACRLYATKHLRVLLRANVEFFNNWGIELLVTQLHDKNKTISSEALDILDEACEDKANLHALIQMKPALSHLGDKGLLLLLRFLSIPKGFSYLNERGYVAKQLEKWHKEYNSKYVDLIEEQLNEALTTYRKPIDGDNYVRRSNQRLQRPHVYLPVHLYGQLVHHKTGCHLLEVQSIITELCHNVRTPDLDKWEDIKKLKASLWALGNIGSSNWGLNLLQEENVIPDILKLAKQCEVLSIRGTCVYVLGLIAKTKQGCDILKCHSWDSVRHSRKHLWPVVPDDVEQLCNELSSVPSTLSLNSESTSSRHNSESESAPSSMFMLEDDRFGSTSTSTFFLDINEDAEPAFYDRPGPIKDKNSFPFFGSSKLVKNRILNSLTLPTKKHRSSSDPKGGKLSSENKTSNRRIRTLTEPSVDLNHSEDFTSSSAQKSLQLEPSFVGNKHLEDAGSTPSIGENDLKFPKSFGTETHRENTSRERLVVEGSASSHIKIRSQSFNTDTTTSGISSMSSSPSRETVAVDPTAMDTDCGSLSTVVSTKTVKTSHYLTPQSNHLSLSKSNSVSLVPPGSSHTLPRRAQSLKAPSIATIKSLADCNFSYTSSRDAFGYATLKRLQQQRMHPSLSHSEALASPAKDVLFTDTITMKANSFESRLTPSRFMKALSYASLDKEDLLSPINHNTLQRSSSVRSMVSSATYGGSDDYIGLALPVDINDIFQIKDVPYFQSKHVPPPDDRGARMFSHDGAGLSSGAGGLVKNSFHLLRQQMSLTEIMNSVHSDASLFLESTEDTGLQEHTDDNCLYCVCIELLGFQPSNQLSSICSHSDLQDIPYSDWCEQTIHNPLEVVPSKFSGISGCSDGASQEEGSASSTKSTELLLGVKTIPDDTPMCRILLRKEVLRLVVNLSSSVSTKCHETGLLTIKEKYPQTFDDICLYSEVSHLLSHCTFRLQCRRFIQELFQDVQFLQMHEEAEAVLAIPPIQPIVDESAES
UniProt O88516, residues 33-592: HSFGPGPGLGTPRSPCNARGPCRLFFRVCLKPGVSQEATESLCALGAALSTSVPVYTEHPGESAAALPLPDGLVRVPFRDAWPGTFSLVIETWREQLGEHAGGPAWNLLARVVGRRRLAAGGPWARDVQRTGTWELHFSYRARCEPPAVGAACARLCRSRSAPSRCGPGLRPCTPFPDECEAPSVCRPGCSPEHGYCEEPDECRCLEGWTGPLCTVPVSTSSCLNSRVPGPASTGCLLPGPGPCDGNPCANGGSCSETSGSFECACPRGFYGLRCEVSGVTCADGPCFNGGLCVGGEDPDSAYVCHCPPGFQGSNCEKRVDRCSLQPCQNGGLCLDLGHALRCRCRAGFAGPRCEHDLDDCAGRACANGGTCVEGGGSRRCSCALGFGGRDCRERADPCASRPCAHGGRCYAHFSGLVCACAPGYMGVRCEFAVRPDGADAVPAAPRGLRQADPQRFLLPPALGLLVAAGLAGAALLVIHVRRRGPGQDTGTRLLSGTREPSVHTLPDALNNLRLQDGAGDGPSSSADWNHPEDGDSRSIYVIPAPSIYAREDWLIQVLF

Tests used:
Assay in all cases: co-IP; 2.5 ug rabbit antibody coupled to protein A/G beads, lysate of 400 mouse oocytes, IP buffer (20 mM Tris-HCl pH 8.0, 10 mM EDTA, 1 mM EGTA, 150 mM NaCl, 0.05% Triton X-100, 0.05% Nonidet P-40), overnight at 4 °C, three washes, SDS-PAGE and western blot; rabbit IgG as control
[1] = target: Notch2 (mouse (endogenous in oocytes)) (UniProt O35516)
[2] = target: p-RICTOR (mouse (endogenous in oocytes)) (UniProt Q6QI06)
[3] = target: Notch2 (mouse (endogenous in oocytes)) (UniProt O35516); remark: listed apart in the source

## DLL3 (from UniProt O88516 33-592) (ligand)
[1]
  binding: binds

## Notch2 (from UniProt O35516 26-2473) (receptor)
[2]
  binding: no binding

B1: MIB2 (enzyme, UniProt Q8R516 1-973)
chain: MDLDPHAGVQVGMRVVRGMDWKWGQQDGGEGGVGTVVELGRHGSPSTPDRTVVVQWDQGTRTNYRAGYQGAHDLLLYDNAQIGIRHPNIICDCCKKHGLRGMRWKCRVCFDYDLCTQCYMHNKHDLTHAFERYETSHSRPVTLSPRQGLPRIPLRGIFQGAKVVRGPDWEWGSQDGGEGKTGRVVDIRGWDVETGRSVASVTWADGTTNVYRVGHKGKVDLRCVGEAAGGFYYKEHLPKLGKPAELQRRVSADGQPFQRGDKVKCLLDTDVLRDMQEGHGGWNPRMAEFIGQMGTVHRITDRGDVRVQFNHETRWTFHPGALTKHNSFWVGDVVRVIGDLDTVKRLQAGHGEWTDDMAPALGRVGKVVKVFGDGNLRVAVGGQRWTFSPSCLVAYRPEEDANLDVAERARENKSAASVSVAGSLSVALDKLRTQKSDPEHPGRLVVEAALGNVARALDLLRRHPEQASYHPALVVDTKNQGRTALQVAAYLGQVELVRLLLQARASMDLPDDEGNTVLHYTAMGNQPEATRVLLSAGCAVDARNGTRSTALHVAVQRGFLEVVKILCERGCDVNLPDAHADTPLHSAISAGAGASSIVEVLTEVPGIDVTATNSQGFTLLHHASLKGHVLAVRKILARARQLVDAKKEDGFTALHLAALNNHREVAQVLIREGRCDVNVRNRKLQSPLHLAVQQAHLGLVPLLVDAGCSVNTEDEEGDTALHVALQRHQLLPLVADRAGGDPGPLQLLSRLQASGLPGCTELTVGAAVACFLALEGADVSYANHRGRSPLDLATEGRVLKALQGCAQRFRERQAGGGGGVPPGPRHVLSTPNTVTNLHVSGTAGPEAAECLVCSELALLILFSPCQHRTVCEECARRMKKCIRCQVVISKKLRPDGSEVVNAIQVPGPPRQLVEELQSRYRQMEERITCPICIDSHIRLVFQCGHGACAPCGAALNACPICRQPIRDRIQIFV
[3]
  binding: binds
